Source: PubChem BioAssay AID686937 (Drosophila RNAi Screening Center, 2013)
The deposit covers about 23,000 reagents; this is an unselected part of those that have a named target and a result. 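Reduced-secretion tags in replicate 1 do not always agree with the z-scores; no criterion for assigning the tags was given.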 Further read-outs or replicates are left out here. Not stated in the record: the amount of reagent.

- Assay: 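Knock-downs that reduce output of a secreted reporter enzyme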 (primary screen)
- System: Drosophila S2 cells expressing secreted horseradish peroxidase
- Knock-down reagent: long dsRNA against Drosophila genes
- Time to read-out: about 5.5 days (5 days dsRNA, then 12 h reporter induction)
- Conditions: reporter expression induced after 5 days of dsRNA, read 12 h later; inducer not stated
- Detection: 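Chemiluminescent measurement of peroxidase in the medium 12 h after reporter induction, following 5 days of dsRNA, given as a z-score per plate; higher means more secretion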
- Direction: z-score: higher = more reporter secreted into medium

Target gene	PubChem SID	z-score, replicate 1	z-score, replicate 2
CG33296	SID104180790	-0.16	-0.04
Idua	SID104182733	0.17	0.32
tsl	SID104196882	0.49	0.37
CG30375	SID104186626	0.48	0.49
CG10927	SID104185806	-5.25	-4.1
Pgant5	SID104182941	0.02	0.34
CG1924	SID104199615	0.32	-0.05
Or92a	SID104196563	0.21	0.13
Stacl	SID104185345	-2.85	-2.31
Stacl	SID104186052	-0.23	0.19
Stacl	SID104186053	0.21	0.39
Stacl	SID104186569	0.14	0.36
Stacl	SID104186883	0.17	0.16
Mtpbeta	SID104184455	0.33	0.4
CAH7	SID104195316	0.18	0.53
spz4	SID104182202	-0.77	-0.21
HDAC11	SID104194072	0.31	0.39
Keap1	SID104195320	0.12	0.14
alpha-Est9	SID104192413	0.1	0.4
tld	SID104196876	0.69	0.52
Fcp3C	SID104198457	0.44	0.4
Mettl2	SID104188190	0.09	0.01

Next part, starting with the last 4 of the part before.
Target gene	PubChem SID	z-score, replicate 1	z-score, replicate 2
alpha-Est9	SID104192413	0.1	0.4
tld	SID104196876	0.69	0.52
Fcp3C	SID104198457	0.44	0.4
Mettl2	SID104188190	0.09	0.01
CG9970	SID104188436	0.11	0.14
CG13599	SID104194394	0.42	0.39
spri	SID104197638	-0.42	-0.68
spri	SID104197776	0.33	0.55
spri	SID104197777	0.51	0.61
spri	SID104197778	0.41	0.83
spri	SID104197780	0.49	0.38
spri	SID104197781	0.45	0.37
spri	SID104202284	-0.95	-0.94
Sse	SID104189538	-1.79	-3.84
CG8641	SID104190820	0.25	0.18
